The target of experiment [1] is T1, DSR2 T52A (Bacillus subtilis) (UniProt P0DXN8).
T1 sequence: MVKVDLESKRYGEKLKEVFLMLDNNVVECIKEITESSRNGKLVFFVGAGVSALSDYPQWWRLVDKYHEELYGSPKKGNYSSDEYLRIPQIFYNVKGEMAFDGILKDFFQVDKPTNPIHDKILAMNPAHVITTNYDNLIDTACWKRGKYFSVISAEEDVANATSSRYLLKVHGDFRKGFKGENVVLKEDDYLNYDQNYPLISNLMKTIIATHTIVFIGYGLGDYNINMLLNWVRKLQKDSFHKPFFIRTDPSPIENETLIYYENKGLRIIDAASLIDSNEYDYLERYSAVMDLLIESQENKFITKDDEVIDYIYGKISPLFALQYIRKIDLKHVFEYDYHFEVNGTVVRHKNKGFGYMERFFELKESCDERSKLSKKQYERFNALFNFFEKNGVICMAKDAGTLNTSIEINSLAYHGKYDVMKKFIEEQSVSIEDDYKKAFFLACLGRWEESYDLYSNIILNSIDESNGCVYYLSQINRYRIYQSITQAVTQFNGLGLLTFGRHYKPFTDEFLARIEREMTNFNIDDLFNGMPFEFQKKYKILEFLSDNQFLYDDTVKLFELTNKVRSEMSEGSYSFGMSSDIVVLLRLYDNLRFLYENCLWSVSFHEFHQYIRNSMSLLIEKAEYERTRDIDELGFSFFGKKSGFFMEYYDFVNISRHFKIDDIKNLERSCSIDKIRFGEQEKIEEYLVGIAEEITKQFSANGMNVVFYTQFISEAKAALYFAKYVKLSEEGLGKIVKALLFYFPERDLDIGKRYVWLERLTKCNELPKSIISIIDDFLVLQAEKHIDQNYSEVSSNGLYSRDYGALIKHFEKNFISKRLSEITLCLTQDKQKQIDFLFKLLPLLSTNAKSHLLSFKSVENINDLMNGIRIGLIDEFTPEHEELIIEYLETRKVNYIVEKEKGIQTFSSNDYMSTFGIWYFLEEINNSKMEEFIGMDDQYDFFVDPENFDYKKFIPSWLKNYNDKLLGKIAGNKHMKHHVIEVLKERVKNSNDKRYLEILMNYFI
In words: tandem affinity co-purification + SEC; His-DSR2 and GST-tube made in E. coli; for wild type the cells expressing each were mixed before lysis; Ni-NTA, then glutathione resin, GST removed with HRV 3C, HiTrap Q, Superdex 200 Increase; mutants purified by the same method.

For experiment [2], the target named is T2, DSR2 D135A (Bacillus subtilis) (UniProt P0DXN8).
T2 sequence: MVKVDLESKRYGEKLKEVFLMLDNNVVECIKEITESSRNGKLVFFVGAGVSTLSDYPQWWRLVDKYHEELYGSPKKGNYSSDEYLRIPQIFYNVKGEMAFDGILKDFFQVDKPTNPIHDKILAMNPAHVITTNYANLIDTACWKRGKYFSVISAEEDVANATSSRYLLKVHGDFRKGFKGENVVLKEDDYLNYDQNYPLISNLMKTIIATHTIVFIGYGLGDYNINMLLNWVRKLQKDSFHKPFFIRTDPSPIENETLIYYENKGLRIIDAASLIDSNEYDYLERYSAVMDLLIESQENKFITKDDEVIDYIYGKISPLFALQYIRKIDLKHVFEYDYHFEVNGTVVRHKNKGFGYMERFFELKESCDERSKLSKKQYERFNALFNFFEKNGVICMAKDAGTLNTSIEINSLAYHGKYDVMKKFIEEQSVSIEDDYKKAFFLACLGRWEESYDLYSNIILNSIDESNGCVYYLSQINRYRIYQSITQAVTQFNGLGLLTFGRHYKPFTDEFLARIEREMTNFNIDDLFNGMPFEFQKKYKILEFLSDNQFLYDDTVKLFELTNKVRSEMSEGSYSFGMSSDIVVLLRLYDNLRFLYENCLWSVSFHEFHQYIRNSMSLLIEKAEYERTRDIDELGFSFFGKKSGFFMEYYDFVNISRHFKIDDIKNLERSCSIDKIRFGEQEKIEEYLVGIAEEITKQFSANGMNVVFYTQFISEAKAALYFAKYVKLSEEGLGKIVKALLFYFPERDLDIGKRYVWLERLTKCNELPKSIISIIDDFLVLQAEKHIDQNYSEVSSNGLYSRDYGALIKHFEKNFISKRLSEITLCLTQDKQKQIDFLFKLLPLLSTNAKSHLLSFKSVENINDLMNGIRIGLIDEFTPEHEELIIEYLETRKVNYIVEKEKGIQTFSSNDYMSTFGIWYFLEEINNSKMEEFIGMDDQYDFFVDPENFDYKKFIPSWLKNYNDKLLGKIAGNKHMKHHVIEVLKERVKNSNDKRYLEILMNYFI
Described as above.

The values that follow come from publication PMC10981675, “Structural basis for phage-mediated activation and repression of bacterial DSR2 anti-phage defense system” (Nature Communications, 2024).

No constants are given. Whether binding was seen depends on the method and setting. Some results given as binding are weak or reduced against the parent protein; the word gives no strength.

B1: tail tube protein of phage SPR, wild type (natural protein)
chain: MKTVIQDTADVYFKRKSDGKLVFTAEAQTASFSQAISEEKLRGGIGNKPLYILKSEKEINLTVKNAFFDLEWLAMTQGETIQEETKVKVFDREHGLIVDDTNKVTLKGKPVSDVTFYNKKGLTYKIAVSTDGTYTIPTAFAAAKDKLTAVYQIEKVGRRLAIKASKFSERYEVEYRTIAYNPDTEEVYSDIYIQFPNVSPSGEFEMSLENGNALAPEIKFEALADTDTDEMAVVIEASRDENTAAPVEDTTGSTQSSDLGGTTE
notes: tail tube protein of Bacillus phage SPR; domains D1 and D2; GST removal with HRV 3C is told for the DSR2-tube complex; Alone it runs as monomeric and oligomeric species on SEC; Only D1 is seen in the maps; also called phage tail tube protein; source: E. coli BL21 Star (DE3); purified alone, or co-purified with DSR2 (Ni-NTA, glutathione resin, HRV 3C cleavage, HiTrap Q, Superdex 200); not shown: …
Take B1: the binding result in experiment [1] and in experiment [2] was “binds” in each case.
